The list is a part of this screen's results and no random one: it covers a few groups of compounds. Other doses and runs of a compound may be missing. T/C is the treated group as % of the vehicle group. Some entries give survivors of the animals treated and no T/C: the source files T/C as zero there, which appears to mark a toxic dose or a test without result, not a measured value. Some doses without a T/C left all or most animals alive at the check, yet need not have been tolerated: the source hardly ever lists a survival T/C far under the control, and the zero likely stands for such cases as well. Counts of survivors are from the toxicity check (mostly the fifth day) where no day follows; animals may have died later. Schedule codes are those of the source, taken here to give the interval after Q, in days (D) or hours (H), and the number of doses after X. Some metal complexes and salts are drawn in pieces, as in the source, so charges may not balance. Where survival is the endpoint, the PubChem record calls one and a half times the control and up active, and a quarter to a half above the control has no call in these data; cut-offs in other NCI protocols can differ. Some entries were tested several times; their values stand side by side, smallest first. Some T/C values are marked as having no survivor count here; that says nothing about deaths at the dose. Some T/C values carry the count of animals alive at the toxicity check (mostly the fifth day); without a count or a note in brackets, all were alive then.
System: CD2F1 mice, L1210 leukemia ip, survival T/C
Assay: NCI In Vivo Anticancer Drug Screen. Data for tumor model L1210 Leukemia (intraperitoneal) in CD2F1 (CDF1) mice
Conditions: higher T/C = longer survival
Method in brief: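 Transplantable tumor in mice; compound-treated vs vehicle-treated groups. Read-out = treated/control ratio of the measured endpoint.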

[1] = T/C endpoint: mean survival time, dose: 100.0 mg/kg/injection, schedule: Q04DX003 (ip), vehicle: saline with Tween-80
[2] = T/C endpoint: mean survival time, dose: 200.0 mg/kg/injection, schedule: Q04DX003 (ip), vehicle: saline with Tween-80
[3] = T/C endpoint: mean survival time, dose: 75.0 mg/kg/injection, schedule: Q01DX001 (ip), vehicle: saline
[4] = T/C endpoint: mean survival time, dose: 150.0 mg/kg/injection, schedule: Q01DX001 (ip), vehicle: saline
[5] = T/C endpoint: mean survival time, dose: 400.0 mg/kg/injection, schedule: Q04DX003 (ip), vehicle: saline with Tween-80

## CC1CCCCN1.C[CH2][Sn]([Br])([CH2]C)[CH2]C
T/C endpoint: mean survival time, dose: 6.25 mg/kg/injection, schedule: Q01DX009 (ip), vehicle: saline with Tween-80
  T/C: 100 % of control [5 of 6 alive]
T/C endpoint: mean survival time, dose: 12.5 mg/kg/injection, schedule: Q01DX009 (ip), vehicle: saline with Tween-80
  T/C: 94 % of control
T/C endpoint: mean survival time, dose: 25.0 mg/kg/injection, schedule: Q01DX009 (ip), vehicle: saline with Tween-80
  survivor count: 1 of 6
T/C endpoint: median survival time, dose: 25.0 mg/kg/injection, schedule: Q04DX002 (ip), vehicle: saline with Tween-80
  survivor count: 1 of 3
T/C endpoint: median survival time, dose: 50.0 mg/kg/injection, schedule: Q04DX002 (ip), vehicle: saline with Tween-80
  survivor count: 0 of 3
T/C endpoint: median survival time, dose: 100.0 mg/kg/injection, schedule: Q04DX002 (ip), vehicle: saline with Tween-80
  survivor count: 0 of 3

## CC(=O)CCOP(N)(=O)N(CCCl)CCCl (stereo not given)
T/C endpoint: mean survival time, dose: 6.25 mg/kg/injection, schedule: Q01DX001 (ip), vehicle: DMSO
  T/C: 108 % of control
T/C endpoint: mean survival time, dose: 12.5 mg/kg/injection, schedule: Q01DX001 (ip), vehicle: DMSO
  T/C: 120 % of control
T/C endpoint: mean survival time, dose: 25.0 mg/kg/injection, schedule: Q01DX001 (ip), vehicle: DMSO, evaluated on day 30
  T/C: 134 % of control
T/C endpoint: mean survival time, dose: 25.0 mg/kg/injection, schedule: Q01DX001 (ip), vehicle: DMSO, evaluated on day 60
  T/C: 128 % of control
T/C endpoint: mean survival time, dose: 50.0 mg/kg/injection, schedule: Q01DX001 (ip), vehicle: DMSO, evaluated on day 30
  T/C: 138 % of control
T/C endpoint: mean survival time, dose: 50.0 mg/kg/injection, schedule: Q01DX001 (ip), vehicle: DMSO, evaluated on day 60
  T/C: 136 % of control
T/C endpoint: mean survival time, dose: 100.0 mg/kg/injection, schedule: Q01DX001 (ip), vehicle: DMSO, evaluated on day 30
  T/C: 91 % of control [5 of 6 alive]
T/C endpoint: mean survival time, dose: 100.0 mg/kg/injection, schedule: Q01DX001 (ip), vehicle: DMSO, evaluated on day 60
  T/C: 96 % of control
T/C endpoint: mean survival time, dose: 200.0 mg/kg/injection, schedule: Q01DX001 (ip), vehicle: DMSO
  survivor count: 5 of 6
T/C endpoint: mean survival time, dose: 400.0 mg/kg/injection, schedule: Q01DX001 (ip), vehicle: DMSO
  survivor count: 2 of 6

## Nc1cc([As]=O)ccc1O (stereo not given)
T/C endpoint: mean survival time, dose: 12.5 mg/kg/injection, schedule: Q01DX009 (ip), vehicle: saline
  T/C: 101 % of control
T/C endpoint: mean survival time, dose: 25.0 mg/kg/injection, schedule: Q01DX009 (ip), vehicle: saline
  T/C: 93 % of control
T/C endpoint: mean survival time, dose: 50.0 mg/kg/injection, schedule: Q01DX009 (ip), vehicle: saline
  T/C: 97 % of control [8 of 10 alive]
T/C endpoint: mean survival time, dose: 75.0 mg/kg/injection, schedule: Q01DX009 (ip), vehicle: saline
  survivor count: 0 of 10

## Oc1ccc(N(CCCl)CCCl)cc1
T/C endpoint: mean survival time, dose: 0.5 mg/kg/injection, schedule: Q01DX009 (ip), vehicle: Klucel (hydroxypropylcellulose) (HPC)
  T/C: 100 % of control
T/C endpoint: mean survival time, dose: 1.0 mg/kg/injection, schedule: Q01DX009 (ip), vehicle: Klucel (hydroxypropylcellulose) (HPC)
  T/C: 105 % of control
T/C endpoint: mean survival time, dose: 2.0 mg/kg/injection, schedule: Q01DX009 (ip), vehicle: Klucel (hydroxypropylcellulose) (HPC)
  T/C: 111 % of control
T/C endpoint: mean survival time, dose: 4.0 mg/kg/injection, schedule: Q01DX009 (ip), vehicle: Klucel (hydroxypropylcellulose) (HPC)
  T/C: 111 % of control
T/C endpoint: mean survival time, dose: 8.0 mg/kg/injection, schedule: Q01DX009 (ip), vehicle: Klucel (hydroxypropylcellulose) (HPC)
  T/C: 117 % of control
T/C endpoint: mean survival time, dose: 16.0 mg/kg/injection, schedule: Q01DX009 (ip), vehicle: Klucel (hydroxypropylcellulose) (HPC)
  T/C: 86 % of control

## CC(=O)NCCSC(O)C(Cl)(Cl)Cl (stereo not given)
T/C endpoint: mean survival time, dose: 75.0 mg/kg/injection, schedule: Q04DX003 (ip), vehicle: saline
  T/C: 106 % of control
T/C endpoint: mean survival time, dose: 150.0 mg/kg/injection, schedule: Q04DX003 (ip), vehicle: saline
  T/C: 97 % of control
T/C endpoint: mean survival time, dose: 300.0 mg/kg/injection, schedule: Q04DX003 (ip), vehicle: saline
  T/C: 101 % of control

## CC(C)CO[P+](=O)OCC(C)C
T/C endpoint: mean survival time, dose: 50.0 mg/kg/injection, schedule: Q04DX003 (ip), vehicle: saline with Tween-80
  T/C: 94 % of control
[1]
  T/C: 101 % of control
[2]
  T/C: 101 % of control

## F[PH+](F)F.F[PH+](F)F.F[PH+](F)F.F[PH+](F)F.[Pt]
T/C endpoint: mean survival time, dose: 3.12 mg/kg/injection, schedule: Q04DX003 (ip), vehicle: other
  T/C: 96 % of control
T/C endpoint: mean survival time, dose: 6.25 mg/kg/injection, schedule: Q04DX003 (ip), vehicle: other
  T/C: 97 % of control
T/C endpoint: mean survival time, dose: 12.5 mg/kg/injection, schedule: Q04DX003 (ip), vehicle: other
  T/C: 94 % of control
T/C endpoint: mean survival time, dose: 25.0 mg/kg/injection, schedule: Q04DX003 (ip), vehicle: other
  T/C: 96 % of control
T/C endpoint: mean survival time, dose: 50.0 mg/kg/injection, schedule: Q04DX003 (ip), vehicle: other
  T/C: 102 % of control [5 of 6 alive]
T/C endpoint: mean survival time, dose: 100.0 mg/kg/injection, schedule: Q04DX003 (ip), vehicle: other
  survivor count: 0 of 6
T/C endpoint: mean survival time, dose: 200.0 mg/kg/injection, schedule: Q04DX003 (ip), vehicle: other
  survivor count: 0 of 6

## O=C1NC(=O)C(c2cccc(N(CCCl)CCCl)c2)N1 (stereo not given)
T/C endpoint: mean survival time, dose: 12.5 mg/kg/injection, schedule: Q01DX001 (ip), vehicle: Klucel (hydroxypropylcellulose) (HPC)
  T/C: 97 and 100 % of control
T/C endpoint: mean survival time, dose: 25.0 mg/kg/injection, schedule: Q01DX001 (ip), vehicle: Klucel (hydroxypropylcellulose) (HPC)
  T/C: 106 and 109 % of control
T/C endpoint: mean survival time, dose: 50.0 mg/kg/injection, schedule: Q01DX001 (ip), vehicle: Klucel (hydroxypropylcellulose) (HPC)
  T/C: 106 and 109 % of control
T/C endpoint: mean survival time, dose: 100.0 mg/kg/injection, schedule: Q01DX001 (ip), vehicle: Klucel (hydroxypropylcellulose) (HPC)
  T/C: 125, 127, 129 % of control
T/C endpoint: mean survival time, dose: 200.0 mg/kg/injection, schedule: Q01DX001 (ip), vehicle: Klucel (hydroxypropylcellulose) (HPC)
  survivor count: 6 of 6
T/C endpoint: mean survival time, dose: 400.0 mg/kg/injection, schedule: Q01DX001 (ip), vehicle: Klucel (hydroxypropylcellulose) (HPC)
  survivor count: 6 of 6

## CCOC1CNP(=O)(N(CCCl)CCCl)OC1 (stereo not given)
T/C endpoint: mean survival time, dose: 21.25 mg/kg/injection, schedule: Q01DX001 (ip), vehicle: DMSO
  T/C: 98 % of control
T/C endpoint: mean survival time, dose: 21.9 mg/kg/injection, schedule: Q01DX001 (ip), vehicle: DMSO
  T/C: 100 % of control
T/C endpoint: mean survival time, dose: 42.5 mg/kg/injection, schedule: Q01DX001 (ip), vehicle: DMSO
  T/C: 100 % of control
T/C endpoint: mean survival time, dose: 43.8 mg/kg/injection, schedule: Q01DX001 (ip), vehicle: DMSO
  T/C: 107 % of control
T/C endpoint: mean survival time, dose: 85.0 mg/kg/injection, schedule: Q01DX001 (ip), vehicle: DMSO
  T/C: 102 % of control
T/C endpoint: mean survival time, dose: 87.5 mg/kg/injection, schedule: Q01DX001 (ip), vehicle: DMSO
  T/C: 112 % of control
T/C endpoint: mean survival time, dose: 170.0 mg/kg/injection, schedule: Q01DX001 (ip), vehicle: DMSO
  T/C: 94 % of control
T/C endpoint: mean survival time, dose: 175.0 mg/kg/injection, schedule: Q01DX001 (ip), vehicle: DMSO
  T/C: 119 % of control
T/C endpoint: mean survival time, dose: 340.0 mg/kg/injection, schedule: Q01DX001 (ip), vehicle: DMSO
  T/C: 102 % of control
T/C endpoint: mean survival time, dose: 350.0 mg/kg/injection, schedule: Q01DX001 (ip), vehicle: DMSO
  T/C: 132 % of control
T/C endpoint: mean survival time, dose: 680.0 mg/kg/injection, schedule: Q01DX001 (ip), vehicle: DMSO
  T/C: 105 % of control
T/C endpoint: mean survival time, dose: 700.0 mg/kg/injection, schedule: Q01DX001 (ip), vehicle: DMSO
  T/C: 144 % of control

## CCP1(=O)Nc2ccccc2N1C (stereo not given)
T/C endpoint: mean survival time, dose: 12.5 mg/kg/injection, schedule: Q04DX002 (ip), vehicle: saline with Tween-80
  T/C: 93 % of control [survivor count not shown]
T/C endpoint: mean survival time, dose: 25.0 mg/kg/injection, schedule: Q04DX002 (ip), vehicle: saline with Tween-80
  T/C: 104 % of control [survivor count not shown]
T/C endpoint: mean survival time, dose: 50.0 mg/kg/injection, schedule: Q04DX002 (ip), vehicle: saline with Tween-80
  T/C: 93 % of control [survivor count not shown]

## CCN(CC)CCOC(=O)C(O)(c1ccc(C(C)C)cc1)c1ccc(C(C)C)cc1
[3]
  T/C: 93 % of control
[4]
  T/C: 93 % of control

## Cc1ccc(Nc2c([N+](=O)[O-])cc([N+](=O)[O-])cc2[N+](=O)[O-])cc1
[1]
  T/C: 95 % of control [survivor count not shown]
[2]
  T/C: 91 % of control [survivor count not shown]
[5]
  T/C: 91 % of control [survivor count not shown]

## Cc1ccc(S(=O)(=O)N(CCCN)CCCc2c(C)nc(N)[nH]c2=O)cc1.O=[N+]([O-])c1cc([N+](=O)[O-])c(O)c([N+](=O)[O-])c1
[1]
  T/C: 97 % of control
[2]
  T/C: 97 % of control
[5]
  T/C: 97 % of control

## CCN(CC)CCOC(=O)C(O)(c1ccccc1)C1C=CCCC1 (stereo not given)
[3]
  T/C: 94 % of control
[4]
  T/C: 94 % of control

Source: PubChem BioAssay AID256 (DTP/NCI, 2004)
